Source: patent US12535491B2, “Vaccine comprising protein-targeted (PT) extracellular DNA isolated from bacterial matrix” (priority 2018, dated 2026)

Each substance was assayed on heat-resistant proteins of human plasma (assay: LC/MS of heat-resistant proteins in plasma after exposure to proteinase K and boiling). Conditions: LC/MS; healthy human blood plasma after incubation for 30 minutes with Proteinase K, following heating for 100° C. for 5 minutes (probe_2).

Row | Substance | N-plasma + pK
1 | CO6_HUMAN | 4
2 | TRFE_HUMAN [TRFE_HUMAN [2]] | 135
3 | HEMO_HUMAN | 53
4 | TRFE_HUMAN | 134
5 | IGLC7_HUMAN | 13
6 | CO3_HUMAN | 88
7 | PLMN_HUMAN | 22
8 | CON_Q2UVX4 | 6
9 | KV105_HUMAN | 1
10 | CO8G_HUMAN | 1
11 | IC1_HUMAN | 8
